Laboratory results: PubChem BioAssay AID1671190 (National Center for Advancing Translational Sciences (NCATS), 2021)
Several values for one entry are separate records, joined by “and”; a condition that tells them apart may be missing. Identical values can stand only once. The whole screen tested about 580,000 compounds, of which about 6,100 (1.1%) were called active. This list was built around the results that the source calls inconclusive (neither active nor inactive); the mix of calls is not that of the screen. Calls come from the whole dose curve; as a rule, active = well fitted inhibition curve with a large enough effect; inconclusive = small, poorly fitted or top-dose-only effect, or another doubt; inactive = no such curve, though single readings can be large or run the other way. Where the call is inconclusive, the potency comes from a doubtful curve fit.

Protein sequences, listed by entry. Tags and fused reporters are not part of them. Lines headed by an entry give the natural chain unless they say otherwise; changes in a name come on top.
UniProt P18054: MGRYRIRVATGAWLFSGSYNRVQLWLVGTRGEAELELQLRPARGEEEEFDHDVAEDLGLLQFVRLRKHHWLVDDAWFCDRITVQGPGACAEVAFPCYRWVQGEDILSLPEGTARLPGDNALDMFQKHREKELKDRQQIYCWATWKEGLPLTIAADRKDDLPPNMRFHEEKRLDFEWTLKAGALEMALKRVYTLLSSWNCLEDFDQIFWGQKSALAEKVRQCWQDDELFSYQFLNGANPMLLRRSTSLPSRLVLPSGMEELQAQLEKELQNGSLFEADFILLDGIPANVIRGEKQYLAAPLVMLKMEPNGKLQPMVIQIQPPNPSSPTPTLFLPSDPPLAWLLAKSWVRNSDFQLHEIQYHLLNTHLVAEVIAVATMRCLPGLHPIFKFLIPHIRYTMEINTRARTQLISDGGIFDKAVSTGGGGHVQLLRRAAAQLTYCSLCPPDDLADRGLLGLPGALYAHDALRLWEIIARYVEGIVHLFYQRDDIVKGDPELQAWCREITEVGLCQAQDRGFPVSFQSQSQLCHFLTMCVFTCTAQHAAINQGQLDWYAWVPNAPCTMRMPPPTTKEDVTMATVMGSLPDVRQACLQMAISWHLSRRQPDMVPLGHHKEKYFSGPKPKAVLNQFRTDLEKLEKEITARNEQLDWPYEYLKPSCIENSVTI

These molecules were tested against Polyunsaturated fatty acid lipoxygenase ALOX12 (Homo sapiens) (UniProt P18054) (assay: Primary qHTS assay for inhibitors of human arachidonate 12S-lipoxygenase (ALOX12): Round 2). Conditions: purified 12hLO, xylenol orange hydroperoxide absorbance; activity change, negative = inhibition: at 108 µM (top of the series) unless noted.
Method in brief: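 Purified human 12hLO at 150 nM in 25 mM Hepes, 0.01% Triton X-100, pH 7.0, preincubated 15 min at room temperature with compound. Reaction started with 40 uM arachidonic acid, 30 min at room temperature. Hydroperoxide measured by Fe-xylenol orange, 573/405 nm absorbance ratio.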
% is set by controls: 0 for no effect and ±100 for the full control effect; potency is the fitted concentration of half-maximal effect.

| SMILES | Potency | activity change, negative = inhibition |
| --- | --- | --- |
| CO/N=C/c1ccc(OCc2ccc(C(=O)OC)cc2)cc1 | inconclusive: 0.224 µM [inhibitor, full curve, poor fit] |  |
| CC(=O)OCC[n+]1c(C)n(-c2ccccc2)c2ccc(Cl)cc21 | inconclusive: 6.31 µM [inhibitor, full curve, poor fit] |  |
| CSc1ccc(S(=O)(=O)NCCOc2ccccc2C)cc1 | inconclusive: 44.7 µM [inhibitor, partial curve, poor fit] |  |
| COC(=O)c1sc2nc(CSc3ccc(Br)cc3)[nH]c(=O)c2c1C | inconclusive: 2.82 µM [inhibitor, full curve, poor fit] |  |
| Cc1oc(C)c(C(=O)O)c1C(=O)O | inconclusive: 44.7 µM [inhibitor, partial curve, poor fit] |  |
| Cn1nccc1-c1cccc(CCOc2cnc3c(ccn3CC(=O)O)c2)c1 | inconclusive: 56.2 µM [inhibitor, partial curve, poor fit] |  |
| COc1cc(CN2CCN(Cc3ccco3)CC2)cc(OC)c1 | inconclusive: 0.398 µM [inhibitor, full curve, poor fit] |  |
| Oc1ccc(Nc2nc(-c3ccccc3F)nc3ccccc23)cc1 | active: 17.8 µM and inconclusive: 44.7 µM [inhibitor, partial curve] |  |
| CN(Cc1cccc([N+](=O)[O-])c1)Cc1cccc2ccccc12 | inconclusive: 5.62 µM [inhibitor, full curve, poor fit] |  |
| O=S(=O)(NC1=NCCCCC1)c1ccc2sc(NS(=O)(=O)c3ccc4ccccc4c3)nc2c1 | inconclusive: 50.1 µM [inhibitor, partial curve, poor fit] |  |
| O=C(CCc1ccccc1)N1CC(Oc2ccc(-c3nc(-c4ccccc4)no3)cc2)C1 | inconclusive: 17.8 µM [inhibitor, full curve] |  |
| Cc1nc2nc(C)c(CCC(=O)NCCCN3CCN(c4cccc(Cl)c4)CC3)c(C)n2n1 | inconclusive: 35.5 µM [inhibitor, partial curve, poor fit] |  |
| O=C(c1cccc(NS(=O)(=O)c2ccc(Br)cc2)c1)N1CCN(c2ccccc2O)CC1 | inconclusive: 56.2 µM [inhibitor, partial curve, poor fit] |  |
| CCCC(c1nnnn1CCOC)N1CCN(C(=O)c2ccco2)CC1 (centres undefined) | inconclusive: 39.8 µM [inhibitor, partial curve, poor fit] |  |
| Cc1ccc(NC(=S)N(CCN2CCOCC2)Cc2ccccc2F)cc1Cl | inconclusive: 44.7 µM [inhibitor, partial curve, poor fit] |  |
| COCC(=O)N(C)[C@H]1C[C@H]2c3[nH]c4c(-c5ccc6c(c5)OCO6)cccc4c3CCN2C(=O)[C@H]1[C@H](C)O | inconclusive: 44.7 µM [inhibitor, partial curve, poor fit] |  |
| COc1cc(OC)cc(C(=O)Nc2ccc3nc(N4CCC(C)CC4)cc(C)c3c2)c1 |  | inactive: -19.2% |
| CC(=O)Nc1ccc(S(=O)(=O)/N=C2\C(=O)c3ccccc3C([O-])=C2n2cc[n+](-c3ccccn3)c2)cc1 | inconclusive: 56.2 µM [inhibitor, partial curve, poor fit] |  |
| CCOc1ccc(CC(=O)N2CCC[C@H]2c2nc(-c3ccc(C)cc3)no2)cc1 | inconclusive: 39.8 µM [inhibitor, partial curve] |  |
| CC(=O)NC12CC3CC(C1)CC(C(=O)NC1CCSCC1)(C3)C2 | inconclusive: 0.112 µM [inhibitor, full curve, poor fit] |  |
| O=C(CCNc1ccc(Cl)c(C(F)(F)F)c1)c1ccco1 |  | inactive: -14.3% |
| CCOC(=O)C1=CC[C@@H](c2ccccc2)N(S(=O)(=O)c2ccc(C)cc2)[C@H]1C |  | inactive: 21.5% |

| SMILES | Potency | activity change, negative = inhibition |
| --- | --- | --- |
| CCc1ccc(NC(=O)COC(=O)C2CC(=O)N(c3ccc(Br)cc3)C2)cc1 (centres undefined) |  | inactive: -3.14% |
| COc1cc(=O)n2c(c1C(=O)NC(C)c1ccco1)CCN(Cc1ccnc3ccccc13)CC2 (centres undefined) | inconclusive: 112 µM [inhibitor, single point] |  |
| COc1ccccc1C(=O)NC(CCSC)C(=O)OCC(=O)NC(=O)NCc1ccco1 (centres undefined) |  | inactive: 69.8% |
| NC(N)=NCC(O)CN(c1ccccc1)c1ccccc1 (centres undefined) | inconclusive: 100 µM [inhibitor, partial curve, poor fit] |  |
| CN(Cc1ccncc1)Cc1cccn1C | inconclusive: 17.8 µM [inhibitor, partial curve] |  |
| O=S(=O)(c1ccc(F)cc1)N1CCN(CC2CC3C=CC2C3)CC1 (centres undefined) | inconclusive: 2.82 µM [inhibitor, full curve, poor fit] |  |
| CN(C)c1ccc(NC(=O)c2ccc3nsnc3c2)cc1 | inconclusive: 50.1 µM [inhibitor, partial curve, poor fit] |  |
| CC(=O)NC1=NN(C(C)=O)C(c2ccc(OCc3ccccc3F)c(Br)c2)S1 (centres undefined) | inconclusive: 56.2 µM [inhibitor, partial curve, poor fit] |  |
| Cc1ccc(CNC(=O)CCS(=O)(=O)c2ccc(Cl)cc2)cc1 |  | inactive: -21.2% |
| CSc1nc2c(c(=O)[nH]1)C(c1ccc(Br)cc1)CC(=O)N2 (centres undefined) | inconclusive: 50.1 µM [inhibitor, partial curve, poor fit] |  |
| CC(C)NC(=O)NC(=O)CSc1nc2ccccc2c(=O)n1C1CC1 | inconclusive: 141 µM [inhibitor, single point] |  |
| Cc1cc(C2(c3ccc(O)c(C)c3)C(=O)N(C)c3ccc(Br)cc32)ccc1O | inconclusive: 35.5 µM [inhibitor, partial curve, poor fit] |  |
| CCc1cccc(CC)c1NC(=O)C1CC(=O)N(c2ccc3c(c2)OCCO3)C1 (centres undefined) | inconclusive: 89.1 µM [inhibitor, partial curve, poor fit] |  |
| CCn1c(N)c(C(=O)NCCCOC)sc1=S | active: 39.8 µM |  |
| O=C(CN(Cc1ccc(F)cc1)S(=O)(=O)c1ccc(Cl)cc1)NCCO | inconclusive: 112 µM [inhibitor, single point] |  |
| CC1CN(CC(O)COc2ccc(C(C)C)cc2)CC(C)O1 (centres undefined) | inconclusive: 8.91 µM [inhibitor, partial curve, poor fit] |  |
| O=C(CCn1c(=O)c2ccccc2n(Cc2cccc([N+](=O)[O-])c2)c1=O)N1CCc2ccccc2C1 |  | inactive: -10% |
| CSCC[C@@H](C(=O)NCCCCCCCCCCC(=O)N1CCN(C(=O)OC(C)(C)C)CC1)n1cc(CCO)nn1 |  | inactive: -6.45% |
| S=C(NCCc1ccccc1)N1CCN(Cc2ccccc2)CC1 | inconclusive: 1.41 µM [inhibitor, full curve, poor fit] |  |
| Cc1ccc(CS(=O)Cc2ccc(C(=O)N3CCN(c4ccccn4)CC3)o2)cc1 (centres undefined) |  | inactive: 0.216% |
| O=C(O)c1cc(S(=O)(=O)N2CCN(C(c3ccccc3)c3ccccc3)CC2)ccc1Cl | active: 39.8 µM |  |
| S=C(NCCN(C1CCCCC1)C1CCCC1)Nc1cccc(Cl)c1 | inconclusive: 100 µM [inhibitor, partial curve, poor fit] |  |

| SMILES | Potency | activity change, negative = inhibition |
| --- | --- | --- |
| N#Cc1cc2c(nc1SCc1ccccc1)CCCCC2 |  | inactive: -14.2% |
| COCC(=O)N1CCCN(CCc2ccccc2)c2ccccc21 |  | inactive: 16.3% |
| COc1ccc(NC(=O)CN2C(=O)C3CC=CCC3C2=O)cc1Cl (centres undefined) | inconclusive: 79.4 µM [inhibitor, single point] |  |
| COc1ccc2c(c1OC)C(=O)OC2Nc1nc(-c2cc3ccccc3oc2=O)cs1 (centres undefined) | inconclusive: 44.7 µM [inhibitor, partial curve, poor fit] |  |
| O=C1CC(c2ccsc2)c2ncn(-c3ccccc3)c2N1 (centres undefined) | inconclusive: 15.8 µM [inhibitor, full curve] |  |
| Cc1cc2cc(CNC(=O)Nc3ccc(Cl)c(Cl)c3)ccc2n1C | inconclusive: 89.1 µM [inhibitor, partial curve, poor fit] |  |
| COc1ccccc1CNc1ncnc2ccc(-c3cccc(C#N)c3)cc12 | inconclusive: 11.2 µM [inhibitor, full curve] |  |
| Cc1ccccc1-n1c(=O)n(Cc2ccccc2)c(=O)c2[nH]cnc21 |  | inactive: 0% |
| COc1ccccc1-c1nc2cc(C(=O)NC[C@H]3CCc4ccccc4O3)cc(NC(C)=O)c2n1C | inconclusive: 89.1 µM [inhibitor, single point] |  |
| CCCCNC(=S)N1CCN(Cc2ccc3c(c2)OCO3)CC1 | inconclusive: 0.891 µM [inhibitor, full curve, poor fit] |  |
| CSc1ccc(C(C)NC(=O)Cc2ccccc2C)cc1 (centres undefined) |  | inactive: 16.3% |
| COc1ccccc1/C(C)=N/NC(=S)NCc1ccccc1 | active: 39.8 µM |  |
| C/C(CCc1ccc2c(c1)OCO2)=N\NC(=S)NC(C)C | inconclusive: 44.7 µM [inhibitor, partial curve, poor fit] |  |
| Cc1cc(/C=C2\SC(=O)N(C)C2=O)c(C)n1-c1ccc(S(N)(=O)=O)cc1 | inconclusive: 44.7 µM [inhibitor, partial curve, poor fit] |  |
| Cc1ccc(C)c(CN2CCC(CNC(=O)Nc3cn(CC(C)C)c(=O)c4ccccc34)CC2)c1 | inconclusive: 11.2 µM [inhibitor, full curve, poor fit] |  |
| COc1ccc(OC)c(/C=C/C(=O)c2ccc3c(c2)OCCO3)c1 |  | inactive: -26% |
| COc1cccc(NC(CNS(=O)(=O)c2ccc(C)cc2)c2ccccc2)c1 (centres undefined) | inconclusive: 112 µM [inhibitor, single point] |  |
| Cc1ccc(-n2nc(N3CCN(S(=O)(=O)c4cccc5nsnc45)CC3)ccc2=O)cc1 |  | inactive: -30.1% |
| COc1cc(S(=O)(=O)N2CCOCC2)ccc1NC(=O)CSc1nnc(N)s1 |  | inactive: 0% |
| Cn1c(-c2sc3ccccc3c2Cl)n[nH]c1=S | active: 14.1 µM |  |
